Patent US6951856B2, “Arylethene-sulfonamides” (Actelion Pharmaceuticals Ltd., priority 2000, dated 2005)

Chains of the proteins cited; added tags and fusions are not shown. Residues count along the entry.
UniProt P25101, 21-427 limits assumed: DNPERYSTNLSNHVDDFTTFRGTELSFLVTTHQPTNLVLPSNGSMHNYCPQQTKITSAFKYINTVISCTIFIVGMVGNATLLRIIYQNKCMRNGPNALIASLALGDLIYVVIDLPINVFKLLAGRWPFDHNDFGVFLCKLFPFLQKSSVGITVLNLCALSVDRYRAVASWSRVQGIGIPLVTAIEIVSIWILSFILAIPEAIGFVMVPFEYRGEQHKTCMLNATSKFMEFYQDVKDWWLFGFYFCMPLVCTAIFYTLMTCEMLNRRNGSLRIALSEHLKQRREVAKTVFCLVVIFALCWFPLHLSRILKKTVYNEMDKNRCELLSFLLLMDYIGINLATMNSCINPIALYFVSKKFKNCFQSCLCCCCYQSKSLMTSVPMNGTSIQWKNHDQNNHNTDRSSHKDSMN
UniProt P24530, 27-442 limits assumed: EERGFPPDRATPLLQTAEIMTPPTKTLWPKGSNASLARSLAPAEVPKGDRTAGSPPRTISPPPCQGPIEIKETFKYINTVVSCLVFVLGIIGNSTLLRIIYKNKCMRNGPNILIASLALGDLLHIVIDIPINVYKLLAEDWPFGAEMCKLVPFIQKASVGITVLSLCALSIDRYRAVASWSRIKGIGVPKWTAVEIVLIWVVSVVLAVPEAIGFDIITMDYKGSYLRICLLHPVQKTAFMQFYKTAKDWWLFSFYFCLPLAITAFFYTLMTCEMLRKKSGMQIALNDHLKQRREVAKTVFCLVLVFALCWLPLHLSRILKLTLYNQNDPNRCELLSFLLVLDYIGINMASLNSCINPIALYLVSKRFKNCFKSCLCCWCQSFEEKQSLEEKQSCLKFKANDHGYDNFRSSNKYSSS

Assays:
[1] = biological target: human recombinant ETA receptors (Homo sapiens, UniProt P25101); assay: Inhibition of [125I]ET-1 binding to membranes from CHO cells carrying human ETA receptors; details: read-out: IC50 ETA; CHO cell membranes, 8 pM [125I]ET-1, 2 h at 20° C.
[2] = biological target: human recombinant ETB receptors (Homo sapiens, UniProt P24530); assay: Inhibition of [125I]ET-1 binding to membranes from CHO cells carrying human ETB receptors; details: read-out: IC50 ETB; CHO cell membranes, 8 pM [125I]ET-1, 2 h at 20° C.

IC50 [1]: 52.1 nM
IC50 [2]: 532 nM
SMILES: Cc1ccc(-c2c(NS(=O)(=O)/C=C/c3ccccc3)ncnc2OCCOc2ccc(Cl)cn2)cc1

The match of structure and compound is tentative.
